Results on 2 molecules are retold here after PMC4172968.

Sequences of proteins named here, by UniProt entry; tags and fusion partners are left off. Residues count along the entry.
UniProt P30561, residues 10-848: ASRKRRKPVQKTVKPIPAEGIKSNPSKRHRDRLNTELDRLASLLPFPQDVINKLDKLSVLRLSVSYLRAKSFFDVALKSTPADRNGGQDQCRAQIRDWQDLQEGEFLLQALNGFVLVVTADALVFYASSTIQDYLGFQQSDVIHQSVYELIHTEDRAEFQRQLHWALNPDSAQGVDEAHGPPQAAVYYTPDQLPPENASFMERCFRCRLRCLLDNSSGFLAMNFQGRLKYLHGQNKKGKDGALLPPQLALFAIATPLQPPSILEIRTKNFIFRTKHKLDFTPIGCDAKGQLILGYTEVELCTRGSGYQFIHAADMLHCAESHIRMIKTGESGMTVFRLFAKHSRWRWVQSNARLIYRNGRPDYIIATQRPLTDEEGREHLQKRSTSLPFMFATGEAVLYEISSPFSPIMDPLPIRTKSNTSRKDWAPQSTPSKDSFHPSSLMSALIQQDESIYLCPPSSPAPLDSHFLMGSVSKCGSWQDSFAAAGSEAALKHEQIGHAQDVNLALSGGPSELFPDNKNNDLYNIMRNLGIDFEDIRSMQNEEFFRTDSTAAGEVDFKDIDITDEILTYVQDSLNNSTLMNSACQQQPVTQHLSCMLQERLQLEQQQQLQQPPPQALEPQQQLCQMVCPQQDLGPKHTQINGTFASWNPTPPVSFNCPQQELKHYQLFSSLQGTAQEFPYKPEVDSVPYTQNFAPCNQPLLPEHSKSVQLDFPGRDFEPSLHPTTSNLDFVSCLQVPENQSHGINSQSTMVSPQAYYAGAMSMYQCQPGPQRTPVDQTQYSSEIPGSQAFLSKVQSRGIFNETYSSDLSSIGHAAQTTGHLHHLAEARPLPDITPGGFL

No constants are given. Whether binding was seen depends on the method and setting. In cells and extracts the contact can be indirect. Some results given as binding are weak or reduced against the parent protein; the word gives no strength.

Test [1] addresses T1, Caveolin-1 (mouse (endogenous in T-FGM fibroblasts)) (UniProt P49817).
T1 sequence: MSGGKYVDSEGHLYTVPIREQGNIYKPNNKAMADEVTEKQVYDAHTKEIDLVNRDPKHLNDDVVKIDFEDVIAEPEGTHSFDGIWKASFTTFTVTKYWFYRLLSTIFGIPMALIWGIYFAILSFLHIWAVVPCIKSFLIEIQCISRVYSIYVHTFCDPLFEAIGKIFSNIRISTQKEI
The test is described as follows: co-IP; T-FGM AhR+/+ cells lysed in 50 mM Tris HCl pH 7.4, 125 mM NaCl, 2 mM DTT, 1% Nonidet P-40; 1 mg total protein immunoprecipitated with anti-Cav-1 or anti-AhR antibody and protein-A/G plus Sepharose overnight at 4°C; immunoblotting for AhR and Cav-1.

Test [2] addresses aryl hydrocarbon Receptor (AhR)/Dioxin receptor (mouse (endogenous in T-FGM fibroblasts)) (UniProt P30561). The description is as above.

“aryl hydrocarbon Receptor (AhR)/Dioxin receptor (from UniProt P30561 10-848)”: the binding result in test [1] is reported as “binds”.

B1: Caveolin-1 (protein, UniProt P49817 1-178)
chain: MSGGKYVDSEGHLYTVPIREQGNIYKPNNKAMADEVTEKQVYDAHTKEIDLVNRDPKHLNDDVVKIDFEDVIAEPEGTHSFDGIWKASFTTFTVTKYWFYRLLSTIFGIPMALIWGIYFAILSFLHIWAVVPCIKSFLIEIQCISRVYSIYVHTFCDPLFEAIGKIFSNIRISTQKEI
Turning to B1, the binding result in test [2] is reported as “binds”.
